PubChem BioAssay AID1159578 – Peter MacCallum Cancer Centre – 2015
Here is a random part of about 18,000 reagents. About 1,030 of them (5.7%) count as active. 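Inactive calls also include pools with fewer than 3300 nuclei, whose migration was not assessed.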 Raw values are not corrected between plates. Unmarked entries are inactive.

- Assay: 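siRNA pools altering how lymphatic endothelial cells close a scratch wound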 (primary screen)
- System: human lymphatic endothelial cells
- Reagent: siRNA pool against human genes, 40 nM
- Time to read-out: 48 h after transfection
- Measured: 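High-content imaging of dye-stained cells in a scratch assay measures filled wound area and nuclei per well; duplicate means given as ratio to mock and robust z-score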
- Scale: migration robust z-score: higher = faster migration into the scratch; migration relative to mock: higher = more scratch area covered than mock; nuclei per well: higher = more cells in the well
- Active means: 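Pools averaging fewer than 3300 nuclei are never called; remaining pools count as changed when migration robust z lies outside -2 to 2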
- Meaning of the calls: active = migration changed; inactive = no migration change, or too few cells

no.	target	migration robust z-score	migration class with cell-count check	migration relative to mock	nuclei per well, duplicate mean
1	LRRIQ4 (GeneID 344657)	1.21	migration z between -2 and 2; enough cells	1.2	6276
2	HEATR3 (GeneID 55027)	1.6	migration z between -2 and 2; enough cells	1.29	6307
3	CPD (GeneID 1362)	0.75	migration z between -2 and 2; enough cells	0.95	5400
4	SALL3 (GeneID 27164)	-0.88	migration z between -2 and 2; enough cells	0.66	4742
5	CPLANE2 (GeneID 79363)	0.45	migration z between -2 and 2; enough cells	1.01	6012
6	STK32B (GeneID 55351)	0.49	migration z between -2 and 2; enough cells	0.9	4022
7	COX10 (GeneID 1352)	-0.55	migration z between -2 and 2; enough cells	0.7	4228
8	BECN1 (GeneID 8678)	-0.39	migration z between -2 and 2; enough cells	0.73	3703
9	LYPD1 (GeneID 116372)	-0.02	migration z between -2 and 2; enough cells	0.88	5625
10	RHEBL1 (GeneID 121268)	0.22	migration z between -2 and 2; enough cells	0.94	4676
11	FGF11 (GeneID 2256)	0.54	migration z between -2 and 2; enough cells	0.91	6462
12	OR12D2 (GeneID 26529)	-0.76	migration z between -2 and 2; enough cells	0.69	6328
13	PLG (GeneID 5340)	0.65	migration z between -2 and 2; enough cells	0.93	5337
14	NT5C1A (GeneID 84618)	-1.34	migration z between -2 and 2; enough cells	0.54	5558
15	UHMK1 (GeneID 127933)	-2.44 (active)	migration z below -2; enough cells	0.34	5208
16	GRXCR2 (GeneID 643226)	0.42	migration z between -2 and 2; enough cells	1	5674
17	EIF4EBP1 (GeneID 1978)	-0.02	migration z between -2 and 2; enough cells	0.8	5256
18	PSMB1 (GeneID 5689)	0.18	migration z between -2 and 2; enough cells	0.84	5360
19	MT3 (GeneID 4504)	0.86	migration z between -2 and 2; enough cells	0.97	4587
20	PLCB2 (GeneID 5330)	-0.1	migration z between -2 and 2; enough cells	0.78	6058
21	NEFH (GeneID 4744)	0.2	migration z between -2 and 2; enough cells	0.94	5576
22	CUEDC2 (GeneID 79004)	-2.8 (active)	migration z below -2; enough cells	0.16	4876
23	PLEKHH2 (GeneID 130271)	0.35	migration z between -2 and 2; enough cells	0.98	6214
24	FARSB (GeneID 10056)	-0.55	migration z between -2 and 2; enough cells	0.7	6076
25	NPL (GeneID 80896)	-0.83	migration z between -2 and 2; enough cells	0.64	5193
26	IPO7 (GeneID 10527)	-1.01	migration z between -2 and 2; enough cells	0.61	7086
27	EFNB2 (GeneID 1948)	-0.81	migration z between -2 and 2; enough cells	0.68	5248
28	SOX17 (GeneID 64321)	-0.4	migration z between -2 and 2; enough cells	0.78	5928

Called active (from the list above):
target	migration robust z-score	migration class with cell-count check	migration relative to mock	nuclei per well, duplicate mean
UHMK1 (GeneID 127933)	-2.44 (active)	migration z below -2; enough cells	0.34	5208
CUEDC2 (GeneID 79004)	-2.8 (active)	migration z below -2; enough cells	0.16	4876

Next reagents:
no.	target	migration robust z-score	migration class with cell-count check	migration relative to mock	nuclei per well, duplicate mean
29	EXOSC4 (GeneID 54512)	1.27	migration z between -2 and 2; enough cells	1.05	4585
30	PAM (GeneID 5066)	0.42	migration z between -2 and 2; enough cells	1	5571
31	HSP90AA1 (GeneID 3320)	-1.92	migration z between -2 and 2; enough cells	0.44	5743
32	CYP2C9 (GeneID 1559)	1.04	migration z between -2 and 2; enough cells	1	5854
33	NCCRP1 (GeneID 342897)	-2.15 (active)	migration z below -2; enough cells	0.39	5118
34	PDE3A (GeneID 5139)	1.66	migration z between -2 and 2; enough cells	1.12	6545
35	CEP350 (GeneID 9857)	1.21	migration z between -2 and 2; enough cells	1.2	5438
36	CHID1 (GeneID 66005)	-1.43	migration z between -2 and 2; enough cells	0.53	5790
37	LST1 (GeneID 7940)	0.73	migration z between -2 and 2; enough cells	1.08	4984
38	ARMCX1 (GeneID 51309)	1.2	migration z between -2 and 2; enough cells	1.2	6334
39	PTGS1 (GeneID 5742)	-0.94	migration z between -2 and 2; enough cells	0.62	5362
40	GEMIN2 (GeneID 8487)	1.8	migration z between -2 and 2; enough cells	1.35	5832
41	KLHDC8B (GeneID 200942)	-0.2	migration z between -2 and 2; enough cells	0.84	3901
42	TFAM (GeneID 7019)	-0.39	migration z between -2 and 2; enough cells	0.73	5661
43	FOXC1 (GeneID 2296)	0.39	migration z between -2 and 2; enough cells	0.88	5888
44	H3-5 (GeneID 440093)	-0.48	migration z between -2 and 2; enough cells	0.76	4884
45	STAP1 (GeneID 26228)	0.12	migration z between -2 and 2; enough cells	0.92	6106
46	SH2D1B (GeneID 117157)	0.84	migration z between -2 and 2; enough cells	1.1	6470
47	CAPRIN1 (GeneID 4076)	-0.16	migration z between -2 and 2; enough cells	0.84	3316
48	RBP5 (GeneID 83758)	-0.23	migration z between -2 and 2; enough cells	0.82	5699
49	NPRL2 (GeneID 10641)	-0.02	migration z between -2 and 2; enough cells	0.88	6215
50	NXPE1 (GeneID 120400)	0.87	migration z between -2 and 2; enough cells	1.11	6556
51	FMO1 (GeneID 2326)	-0.21	migration z between -2 and 2; enough cells	0.83	7292
52	ANXA6 (GeneID 309)	-0.28	migration z between -2 and 2; enough cells	0.82	5652
53	LRRC37A (GeneID 9884)	-1.59	migration z between -2 and 2; enough cells	0.48	4716
54	SCGB1A1 (GeneID 7356)	-2.82	under 3300 nuclei; migration not judged	0.16	3251
55	KCMF1 (GeneID 56888)	0.9	migration z between -2 and 2; enough cells	1.12	6374
56	DPP10 (GeneID 57628)	1.92	migration z between -2 and 2; enough cells	1.18	6449
57	TMEM45B (GeneID 120224)	0.55	migration z between -2 and 2; enough cells	1.02	7996
58	KIF18B (GeneID 146909)	0.32	migration z between -2 and 2; enough cells	0.97	6960
59	YY1AP1 (GeneID 55249)	1	migration z between -2 and 2; enough cells	1.14	4882
60	EIF6 (GeneID 3692)	0.08	migration z between -2 and 2; enough cells	0.82	5067
61	PRELID3A (GeneID 10650)	-0.09	migration z between -2 and 2; enough cells	0.86	5283
62	ADCK1 (GeneID 57143)	-4.08 (active)	migration z below -2; enough cells	0.02	3927
63	TICAM1 (GeneID 148022)	-0.46	migration z between -2 and 2; enough cells	0.76	5446
64	TPCN2 (GeneID 219931)	0.28	migration z between -2 and 2; enough cells	0.86	6308
65	RPL36 (GeneID 25873)	-0.43	migration z between -2 and 2; enough cells	0.77	5055
66	TIMM8A (GeneID 1678)	0.62	migration z between -2 and 2; enough cells	0.92	6211
67	PSG2 (GeneID 5670)	0.95	migration z between -2 and 2; enough cells	1.13	5456
68	FIP1L1 (GeneID 81608)	1.08	migration z between -2 and 2; enough cells	1.17	5364
69	STK24 (GeneID 8428)	0.44	migration z between -2 and 2; enough cells	0.89	4354
70	MRPL35 (GeneID 51318)	-0.62	migration z between -2 and 2; enough cells	0.73	5062
71	POMP (GeneID 51371)	-0.62	under 3300 nuclei; migration not judged	0.68	2666
72	SPANXN1 (GeneID 494118)	-1.98	migration z between -2 and 2; enough cells	0.36	6080
73	ISOC1 (GeneID 51015)	-1.43	migration z between -2 and 2; enough cells	0.53	4340
